PubChem BioAssay AID1259424 | University of Nebraska Medical Center | 2018

Aim: 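Rank knockdowns across the genome by resemblance to the KSR1 depletion profile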 (primary screen)
Cells: human HCT116 colon cancer cells
Reagents: siRNA pool against human genes, 50 nM
Measurement: 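Six signature mRNAs by branched-DNA multiplex assay, scaled to two housekeeping genes and non-targeting median, log2; matched to mean KSR1 knockdown profile by Pearson correlation and euclidean distance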
Scale: mean correlation with KSR1 profile: higher = expression change more like KSR1 knockdown; mean distance from KSR1 profile: higher = expression change less like KSR1 knockdown
This is an unselected part of about 14,000 reagents tested. 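Higher correlation or smaller distance means closer resemblance to KSR1 loss; control wells, including KSR1 knockdowns, recur on many plates.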 Not all columns of the deposit are shown. Not given: the time to read-out.

After knock-down of RPL23AP32 [SID364001568], the record shows mean correlation with KSR1 profile 0.326; mean distance from KSR1 profile 4.62.
Silencing of ANP32A [SID363997127] came out at: mean correlation with KSR1 profile -0.656; mean distance from KSR1 profile 2.08.
DDX47 [SID364000055] gave mean correlation with KSR1 profile 0.871; mean distance from KSR1 profile 1.94.
PIGH [SID363995540] showed mean correlation with KSR1 profile -0.421; mean distance from KSR1 profile 3.02.
For QPCTL [SID364000426] the deposit lists mean correlation with KSR1 profile 0.387; mean distance from KSR1 profile 1.26.
BCAS3 [SID364000442] showed mean correlation with KSR1 profile -0.183; mean distance from KSR1 profile 1.6.
With knock-down of BAAT [SID363992923] the results were mean correlation with KSR1 profile 0.37; mean distance from KSR1 profile 2.92.
For FSD1L [SID364003698], the entry reads mean correlation with KSR1 profile 0.403; mean distance from KSR1 profile 1.96.
For MSANTD2 [SID364002930], the values are mean correlation with KSR1 profile 0.497; mean distance from KSR1 profile 2.36.
Against GOLT1B [SID363999845], the values are mean correlation with KSR1 profile -0.321; mean distance from KSR1 profile 1.36.
FKBPL [SID364002337] scored mean correlation with KSR1 profile 0.192; mean distance from KSR1 profile 2.42.
LYZL1 [SID364004029] showed mean correlation with KSR1 profile 0.501; mean distance from KSR1 profile 1.99.
Silencing of SEPHS2 [SID363998171] came out at: mean correlation with KSR1 profile 0.408; mean distance from KSR1 profile 2.29.
Depletion of KRT14 [SID363991849] came out at: mean correlation with KSR1 profile 0.148; mean distance from KSR1 profile 1.63.
With knock-down of TECPR2 [SID364005524], the record shows mean correlation with KSR1 profile -0.263; mean distance from KSR1 profile 3.35.
Knock-down of HECTD3 [SID364002905] resulted in: mean correlation with KSR1 profile 0.323; mean distance from KSR1 profile 3.61.
Silencing of DDX6 [SID363995381] gave: mean correlation with KSR1 profile -0.728; mean distance from KSR1 profile 3.4.
Knock-down of KRTAP5-9 [SID363996453] resulted in: mean correlation with KSR1 profile 0.072; mean distance from KSR1 profile 2.3.
Against PLXNA1 [SID364003846], the values are mean correlation with KSR1 profile 0.0259; mean distance from KSR1 profile 1.37.
For DAXX [SID363992627], the entry reads mean correlation with KSR1 profile 0.48; mean distance from KSR1 profile 1.52.
Knock-down of HSSUCCDH (retired record) [SID364005027] came out at: mean correlation with KSR1 profile -0.0883; mean distance from KSR1 profile 1.94.
Against PNISR [SID364004243], the values are mean correlation with KSR1 profile -0.546; mean distance from KSR1 profile 3.87.
Silencing of HERPUD1 [SID363999032] gave: mean correlation with KSR1 profile -0.167; mean distance from KSR1 profile 2.27.
For UGGT2 [SID364001485] the deposit lists mean correlation with KSR1 profile 0.073; mean distance from KSR1 profile 2.34.
CDYL [SID363995777] showed mean correlation with KSR1 profile -0.916; mean distance from KSR1 profile 3.96.
Against ANXA7 [SID363992448], the values are mean correlation with KSR1 profile -0.309; mean distance from KSR1 profile 1.88.
EIF3I [SID363994824] gave mean correlation with KSR1 profile -0.0599; mean distance from KSR1 profile 1.68.
CCNJL [SID364002874] scored mean correlation with KSR1 profile -0.488; mean distance from KSR1 profile 3.89.

Limited to “mean distance from KSR1 profile”, for 4 of the entries above:
FKBPL [SID364002337]	2.42
LYZL1 [SID364004029]	1.99
SEPHS2 [SID363998171]	2.29
KRT14 [SID363991849]	1.63
